This is one part of the list.
These sequences were tested against T1, OsSMF1 (Oryza sativa, UniProt Q6ZLB0 1-436) (assay: protein-binding microarray (RPBM); PBS, 2% BSA, 51.3 ng/ul salmon testes DNA, 50 uM zinc acetate, 200 nM TF, 25 C, 1 h; high values mean tight binding). Settings: protein: recombinant; tags: N-terminal polyhistidine and DsRed monomer fusion (pET32a); chain copies: 2; label: CyDye5-dUTP incorporated in the synthesized complementary strand; 3' TTTTT single-stranded linker to array surface; dsDNA, one strand shown.
T1 sequence: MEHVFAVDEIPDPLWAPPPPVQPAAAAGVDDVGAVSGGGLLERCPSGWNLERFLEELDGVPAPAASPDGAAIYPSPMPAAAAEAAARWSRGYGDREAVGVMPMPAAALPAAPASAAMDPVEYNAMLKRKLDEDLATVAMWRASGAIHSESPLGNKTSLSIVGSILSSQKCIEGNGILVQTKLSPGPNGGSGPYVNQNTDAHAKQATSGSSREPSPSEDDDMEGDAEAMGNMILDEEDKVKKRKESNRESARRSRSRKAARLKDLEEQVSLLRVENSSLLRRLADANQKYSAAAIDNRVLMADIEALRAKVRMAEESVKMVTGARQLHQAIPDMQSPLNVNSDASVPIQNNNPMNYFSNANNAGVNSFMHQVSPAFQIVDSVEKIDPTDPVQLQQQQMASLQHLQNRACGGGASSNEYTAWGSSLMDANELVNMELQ
Procedure, shortened: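 Polyhistidine-tagged DsRed fusions of transcription factors, joined at the N-terminus, were expressed in E. coli BL21-CodonPlus and isolated on Ni–NTA. They were incubated at 200 nM for 1 h at 25 °C on a custom Agilent array, double-stranded and BSA-blocked, in PBS with 2% BSA, salmon testes DNA and 50 µM zinc acetate. The binding signal is per-feature fluorescence intensity (arbitrary units) read on an Axon 4000B scanner after washing.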

Sequence | binding signal
AGACACGGCAGAGACAACGGCATGGGCGGCTTAGCTTATACGGAGTCACCTAGTGCAG | 5010 fluorescence intensity (a.u.)
GTCTTTCTCCTTCTCCTCCTCCTTCCTCTCGCTCTCTCCTCGGAGTCACCTAGTGCAG | 19600 fluorescence intensity (a.u.)
CTCTTGATGCTGTTGACTCTGTAAACAAAATGCGTAATCACGGAGTCACCTAGTGCAG | 3170 fluorescence intensity (a.u.)
GTGCAGATCCACTGTCTGCTCATTGGGCTTATTCATGGCTCGGAGTCACCTAGTGCAG | 40700 fluorescence intensity (a.u.)
CCAATGCCGTCGCCACCCACATCACCACCCGGCGCACTCACGGAGTCACCTAGTGCAG | 6440 fluorescence intensity (a.u.)
CCGGAGGGCGTTGACGTCGATGCCGATGTGGTCGTAGGTGCGGAGTCACCTAGTGCAG | 4620 fluorescence intensity (a.u.)
AGCCAAAAGGCAGCTGGCCACGTCTAATCTGGTTTCCATCCGGAGTCACCTAGTGCAG | 4450 fluorescence intensity (a.u.)
GAGGTACCGGCCGTACGCGCCGCGGAGGCGGACGTAGGGCCGGAGTCACCTAGTGCAG | 31200 fluorescence intensity (a.u.)
GATTAGTTGCTCCTTCTCCATGATCGTTAGTTGTTCGAATCGGAGTCACCTAGTGCAG | 3400 fluorescence intensity (a.u.)
AGTTCTTGGGCTCCGGCGGCAGCCGGCCGGTGTTGGGCGCCGGAGTCACCTAGTGCAG | 18000 fluorescence intensity (a.u.)
TCCTAGGTGAAACAACCACGTCATTTCACGGGTGAATCCACGGAGTCACCTAGTGCAG | 7800 fluorescence intensity (a.u.)
CAAAGCCCTTCATCTCCTTGTCATCTTGAGTTGCTTGAGCCGGAGTCACCTAGTGCAG | 16600 fluorescence intensity (a.u.)
CGGCGCGCCTCGATGAGGTGGCGCGGGAGGAGGCCTCGGCCGGAGTCACCTAGTGCAG | 3910 fluorescence intensity (a.u.)
CTTACATCCTTTAAATATGACGTAGATCAGAGATATGACGCGGAGTCACCTAGTGCAG | 6430 fluorescence intensity (a.u.)
CCAACAACGATGAACACACGTACGTAGACCACTCCTTTGGCGGAGTCACCTAGTGCAG | 3890 fluorescence intensity (a.u.)
ATCTCATGCTTTGCCCAGTCAGAAACTCAGGATACAAACTCGGAGTCACCTAGTGCAG | 3310 fluorescence intensity (a.u.)
GGGCGCGTACAAAATCGCAGTCGTGCTCGTCTCATCCCGCCGGAGTCACCTAGTGCAG | 13300 fluorescence intensity (a.u.)
CCCAAAATATATGTGACTGATACGTGGGTCCCATTGACACCGGAGTCACCTAGTGCAG | 4370 fluorescence intensity (a.u.)
CAAAGTGTAGGGAGACTTTACAAGTCATAAATTACTCATACGGAGTCACCTAGTGCAG | 3220 fluorescence intensity (a.u.)
ACCTCCGTGTGGGGCCCACGTGACAGCGACCCACTCGCCCCGGAGTCACCTAGTGCAG | 3580 fluorescence intensity (a.u.)
TCTAATGTTTGGGGAGGATTGAGGAAATTAATCGGCCAAACGGAGTCACCTAGTGCAG | 3390 fluorescence intensity (a.u.)

Sequence | binding signal
CCATAGTTTACGAAGCCGGAGTACGTGGAGCCAACTCACCCGGAGTCACCTAGTGCAG | 5040 fluorescence intensity (a.u.)
CTAATTACGTCATGATTTGACAATGTGGTGTGGTGCTACACGGAGTCACCTAGTGCAG | 6670 fluorescence intensity (a.u.)
CAACCTGGCACCACTTGAGAACACGCAAGCTTGGCTCTTGCGGAGTCACCTAGTGCAG | 3710 fluorescence intensity (a.u.)
GGAAGAGATAAGAGGGTGACGAGGACTCAGATCGATGCGCCGGAGTCACCTAGTGCAG | 4350 fluorescence intensity (a.u.)
ACTTTAAAATGACCACGCCATACAGTTATTACAGCGATAACGGAGTCACCTAGTGCAG | 3310 fluorescence intensity (a.u.)
TGATGATGACATGCTGATCGGTTCATCTGTAAACGAGTGTCGGAGTCACCTAGTGCAG | 3360 fluorescence intensity (a.u.)
AAAGGGGATCTCTGGTCTCGCCGAACCGCAACCCAACCCACGGAGTCACCTAGTGCAG | 3310 fluorescence intensity (a.u.)
AGGCTTTCGCTATGACTTGTCCCCTGGAAAGGTCTATTTACGGAGTCACCTAGTGCAG | 6100 fluorescence intensity (a.u.)
AATGTGCCGGCCATGGTAGGGCCACGCTGGCCAGTCACACCGGAGTCACCTAGTGCAG | 3720 fluorescence intensity (a.u.)
CGGTCCGGGCGATTTGACCGGTCAAAAGGCGTGGCCACGACGGAGTCACCTAGTGCAG | 3850 fluorescence intensity (a.u.)
GTATTGAGAATTGTATGACTAATCAATGTTGCCTTACTTACGGAGTCACCTAGTGCAG | 5200 fluorescence intensity (a.u.)
TTTCCGTGCGGGAGGGATTAGTTCCCATCGCTGGAATCCGCGGAGTCACCTAGTGCAG | 26200 fluorescence intensity (a.u.)
ACCACAGCAGATTTAGTTTAGGAATTCTGACATGTATCCACGGAGTCACCTAGTGCAG | 3760 fluorescence intensity (a.u.)
AAAACGTAAATGTACAAGATTAAAGAAACATAGCTATGTTCGGAGTCACCTAGTGCAG | 29000 fluorescence intensity (a.u.)
TCCATCACTGGGCTATAAGGTTTCAAATTTGTGCATTAAACGGAGTCACCTAGTGCAG | 19700 fluorescence intensity (a.u.)
CGGTGGCTCGCGTGAGGAGGCGAGGCGGGCCTGGGCATGGCGGAGTCACCTAGTGCAG | 3420 fluorescence intensity (a.u.)
GACTAATCACAATGCATACGTCAGATGAAGCGTGCGTAGCCGGAGTCACCTAGTGCAG | 4930 fluorescence intensity (a.u.)
TTGCAAAATCTACAGCATCCACGCCACGGAAGAGCAGATCCGGAGTCACCTAGTGCAG | 4440 fluorescence intensity (a.u.)
TAATATGAGGAAGTGAGCTCGGTGTAACATCGTGTCACTGCGGAGTCACCTAGTGCAG | 3290 fluorescence intensity (a.u.)
AAGTAGTGTCTATGGTGCCATGTCAATAGGACATCATAATCGGAGTCACCTAGTGCAG | 3920 fluorescence intensity (a.u.)
AATCTTCTGGCGTAACAATGTGAAGGATAAACAAGTGGGTCGGAGTCACCTAGTGCAG | 3160 fluorescence intensity (a.u.)

Not a retest: entries from further up.
Sequence | binding signal
GACTAATCACAATGCATACGTCAGATGAAGCGTGCGTAGCCGGAGTCACCTAGTGCAG | 4930 fluorescence intensity (a.u.)
TTGCAAAATCTACAGCATCCACGCCACGGAAGAGCAGATCCGGAGTCACCTAGTGCAG | 4440 fluorescence intensity (a.u.)
